Assay results taken from publication PMC4591814.
No constants are given. Whether binding was seen depends on the method and setting. Binding seen in cells or lysates may run through a third protein. A yes stands for co-enrichment or nearness to the bait. Other partners may have been found. No binding means not detected with the bait. Sequences can lack the tags named with a protein.

Chains of the proteins cited; added tags and fusions are not shown.
UniProt P51587: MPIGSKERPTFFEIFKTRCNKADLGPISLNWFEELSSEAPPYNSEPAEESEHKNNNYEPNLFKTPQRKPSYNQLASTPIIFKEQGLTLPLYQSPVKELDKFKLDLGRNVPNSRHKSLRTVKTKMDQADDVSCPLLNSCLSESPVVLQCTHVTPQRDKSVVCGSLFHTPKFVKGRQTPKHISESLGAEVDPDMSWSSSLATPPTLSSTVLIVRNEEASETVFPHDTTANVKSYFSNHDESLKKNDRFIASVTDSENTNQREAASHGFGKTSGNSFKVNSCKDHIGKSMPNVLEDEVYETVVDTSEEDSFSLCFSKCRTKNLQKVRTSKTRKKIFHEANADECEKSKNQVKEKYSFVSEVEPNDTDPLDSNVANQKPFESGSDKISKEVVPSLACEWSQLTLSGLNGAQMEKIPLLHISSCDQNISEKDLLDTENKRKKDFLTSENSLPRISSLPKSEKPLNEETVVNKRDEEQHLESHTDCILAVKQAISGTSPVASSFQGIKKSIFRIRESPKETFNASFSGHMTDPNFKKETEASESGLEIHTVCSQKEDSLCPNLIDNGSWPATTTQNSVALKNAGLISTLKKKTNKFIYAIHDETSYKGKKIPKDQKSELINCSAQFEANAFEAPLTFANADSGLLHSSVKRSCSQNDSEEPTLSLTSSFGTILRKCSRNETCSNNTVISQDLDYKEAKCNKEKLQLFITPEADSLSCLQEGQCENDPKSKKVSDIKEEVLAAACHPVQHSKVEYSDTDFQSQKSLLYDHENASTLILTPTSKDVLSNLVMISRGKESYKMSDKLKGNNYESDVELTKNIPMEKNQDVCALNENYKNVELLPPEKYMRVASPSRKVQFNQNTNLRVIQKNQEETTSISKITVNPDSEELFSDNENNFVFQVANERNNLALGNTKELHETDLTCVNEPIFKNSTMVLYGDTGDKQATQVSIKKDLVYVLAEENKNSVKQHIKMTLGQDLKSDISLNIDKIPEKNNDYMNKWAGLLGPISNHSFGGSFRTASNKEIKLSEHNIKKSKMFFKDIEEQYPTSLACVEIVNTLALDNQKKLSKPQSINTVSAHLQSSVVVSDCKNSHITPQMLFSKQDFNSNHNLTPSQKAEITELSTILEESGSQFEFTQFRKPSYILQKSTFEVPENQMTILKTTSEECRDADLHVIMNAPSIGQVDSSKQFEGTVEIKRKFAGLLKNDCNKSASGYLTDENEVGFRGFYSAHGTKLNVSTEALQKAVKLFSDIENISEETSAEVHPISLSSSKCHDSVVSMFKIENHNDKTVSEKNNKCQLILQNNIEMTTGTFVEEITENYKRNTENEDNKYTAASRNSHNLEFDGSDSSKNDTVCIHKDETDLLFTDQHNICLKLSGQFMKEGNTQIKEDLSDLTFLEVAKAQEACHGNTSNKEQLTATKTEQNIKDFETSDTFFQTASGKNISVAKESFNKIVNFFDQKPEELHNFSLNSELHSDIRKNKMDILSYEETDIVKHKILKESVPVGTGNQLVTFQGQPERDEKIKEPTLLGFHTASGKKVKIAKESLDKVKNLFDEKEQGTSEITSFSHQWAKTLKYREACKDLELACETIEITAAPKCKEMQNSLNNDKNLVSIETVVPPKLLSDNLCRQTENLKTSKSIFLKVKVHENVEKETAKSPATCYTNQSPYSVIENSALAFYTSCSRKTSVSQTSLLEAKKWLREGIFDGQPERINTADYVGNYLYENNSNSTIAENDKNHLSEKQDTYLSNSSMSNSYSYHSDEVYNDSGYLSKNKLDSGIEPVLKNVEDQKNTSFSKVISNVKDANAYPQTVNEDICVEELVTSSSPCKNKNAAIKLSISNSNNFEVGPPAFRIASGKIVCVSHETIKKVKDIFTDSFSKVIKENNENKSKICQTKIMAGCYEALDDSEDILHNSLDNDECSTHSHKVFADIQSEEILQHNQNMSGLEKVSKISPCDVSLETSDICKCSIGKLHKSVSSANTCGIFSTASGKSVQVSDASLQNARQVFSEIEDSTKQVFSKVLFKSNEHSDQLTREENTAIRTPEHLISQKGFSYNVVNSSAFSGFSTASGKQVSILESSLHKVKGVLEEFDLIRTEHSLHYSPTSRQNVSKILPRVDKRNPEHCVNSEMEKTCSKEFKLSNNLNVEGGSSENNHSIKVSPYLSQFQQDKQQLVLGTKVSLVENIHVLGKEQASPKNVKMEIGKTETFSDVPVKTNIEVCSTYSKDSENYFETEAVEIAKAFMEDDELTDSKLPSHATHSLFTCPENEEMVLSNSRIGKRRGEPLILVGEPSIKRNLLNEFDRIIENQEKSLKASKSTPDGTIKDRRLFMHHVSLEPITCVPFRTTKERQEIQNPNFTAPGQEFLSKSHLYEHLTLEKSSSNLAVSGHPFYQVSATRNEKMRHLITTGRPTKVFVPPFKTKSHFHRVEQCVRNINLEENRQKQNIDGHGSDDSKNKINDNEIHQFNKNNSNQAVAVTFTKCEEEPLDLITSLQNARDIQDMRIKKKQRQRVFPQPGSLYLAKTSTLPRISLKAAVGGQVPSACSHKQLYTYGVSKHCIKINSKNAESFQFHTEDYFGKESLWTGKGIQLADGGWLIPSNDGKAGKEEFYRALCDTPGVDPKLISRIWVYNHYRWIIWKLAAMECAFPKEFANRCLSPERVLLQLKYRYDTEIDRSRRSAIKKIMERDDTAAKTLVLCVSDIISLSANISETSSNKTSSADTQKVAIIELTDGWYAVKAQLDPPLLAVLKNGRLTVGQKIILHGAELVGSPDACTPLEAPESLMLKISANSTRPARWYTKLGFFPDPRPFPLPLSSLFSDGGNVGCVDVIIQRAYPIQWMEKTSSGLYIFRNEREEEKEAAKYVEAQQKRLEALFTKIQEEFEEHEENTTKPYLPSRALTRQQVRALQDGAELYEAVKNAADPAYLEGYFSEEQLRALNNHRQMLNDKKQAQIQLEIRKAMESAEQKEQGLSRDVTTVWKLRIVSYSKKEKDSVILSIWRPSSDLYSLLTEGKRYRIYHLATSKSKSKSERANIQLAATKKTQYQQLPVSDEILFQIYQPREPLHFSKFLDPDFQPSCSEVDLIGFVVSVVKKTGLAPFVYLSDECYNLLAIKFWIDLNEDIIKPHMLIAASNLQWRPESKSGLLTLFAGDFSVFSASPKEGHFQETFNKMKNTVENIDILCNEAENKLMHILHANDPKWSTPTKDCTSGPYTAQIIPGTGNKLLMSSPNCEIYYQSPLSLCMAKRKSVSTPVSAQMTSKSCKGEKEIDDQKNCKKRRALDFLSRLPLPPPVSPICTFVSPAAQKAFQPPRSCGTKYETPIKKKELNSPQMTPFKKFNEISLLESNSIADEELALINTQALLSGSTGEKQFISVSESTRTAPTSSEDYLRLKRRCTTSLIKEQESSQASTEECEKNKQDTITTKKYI
UniProt Q9BXW9: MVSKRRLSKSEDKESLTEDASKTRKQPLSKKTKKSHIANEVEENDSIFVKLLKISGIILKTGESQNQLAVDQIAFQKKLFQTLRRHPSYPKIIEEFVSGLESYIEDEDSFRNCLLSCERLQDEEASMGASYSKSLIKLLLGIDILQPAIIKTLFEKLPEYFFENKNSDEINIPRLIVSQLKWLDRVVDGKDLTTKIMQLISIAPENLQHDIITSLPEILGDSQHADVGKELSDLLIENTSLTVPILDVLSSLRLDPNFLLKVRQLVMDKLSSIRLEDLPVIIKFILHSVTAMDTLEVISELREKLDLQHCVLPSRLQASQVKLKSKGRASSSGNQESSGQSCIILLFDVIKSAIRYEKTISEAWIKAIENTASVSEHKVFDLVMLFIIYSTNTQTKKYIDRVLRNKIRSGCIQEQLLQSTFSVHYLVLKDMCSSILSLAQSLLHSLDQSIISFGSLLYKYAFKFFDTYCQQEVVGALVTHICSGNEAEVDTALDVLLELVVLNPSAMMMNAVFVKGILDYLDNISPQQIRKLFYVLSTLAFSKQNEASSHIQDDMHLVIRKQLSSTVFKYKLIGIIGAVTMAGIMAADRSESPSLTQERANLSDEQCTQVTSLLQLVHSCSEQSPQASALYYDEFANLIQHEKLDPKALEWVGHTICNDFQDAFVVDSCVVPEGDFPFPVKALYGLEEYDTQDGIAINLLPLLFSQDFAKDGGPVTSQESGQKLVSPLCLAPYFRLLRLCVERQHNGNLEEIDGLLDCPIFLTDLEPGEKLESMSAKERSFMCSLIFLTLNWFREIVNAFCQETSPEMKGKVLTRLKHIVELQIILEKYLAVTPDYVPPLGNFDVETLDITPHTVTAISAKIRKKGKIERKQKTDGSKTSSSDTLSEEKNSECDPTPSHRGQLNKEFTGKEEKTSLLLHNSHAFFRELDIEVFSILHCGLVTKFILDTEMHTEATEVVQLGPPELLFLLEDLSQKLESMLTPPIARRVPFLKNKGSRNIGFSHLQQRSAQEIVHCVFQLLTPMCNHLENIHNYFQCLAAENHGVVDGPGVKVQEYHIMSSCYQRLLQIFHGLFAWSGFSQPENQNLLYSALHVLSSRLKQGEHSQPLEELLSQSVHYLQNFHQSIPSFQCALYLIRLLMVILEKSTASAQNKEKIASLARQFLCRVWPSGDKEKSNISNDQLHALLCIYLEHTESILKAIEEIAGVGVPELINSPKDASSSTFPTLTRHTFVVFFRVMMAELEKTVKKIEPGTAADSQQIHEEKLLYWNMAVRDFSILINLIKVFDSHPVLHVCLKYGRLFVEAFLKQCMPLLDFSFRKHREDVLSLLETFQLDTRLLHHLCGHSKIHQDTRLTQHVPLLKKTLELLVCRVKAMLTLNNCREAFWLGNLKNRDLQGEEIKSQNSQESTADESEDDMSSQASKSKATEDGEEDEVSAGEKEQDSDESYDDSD

T1: FLAG and HA epitope-tagged human DNA polymerase ν (POLN) (human) (UniProt Q7Z5Q5)
T1 sequence: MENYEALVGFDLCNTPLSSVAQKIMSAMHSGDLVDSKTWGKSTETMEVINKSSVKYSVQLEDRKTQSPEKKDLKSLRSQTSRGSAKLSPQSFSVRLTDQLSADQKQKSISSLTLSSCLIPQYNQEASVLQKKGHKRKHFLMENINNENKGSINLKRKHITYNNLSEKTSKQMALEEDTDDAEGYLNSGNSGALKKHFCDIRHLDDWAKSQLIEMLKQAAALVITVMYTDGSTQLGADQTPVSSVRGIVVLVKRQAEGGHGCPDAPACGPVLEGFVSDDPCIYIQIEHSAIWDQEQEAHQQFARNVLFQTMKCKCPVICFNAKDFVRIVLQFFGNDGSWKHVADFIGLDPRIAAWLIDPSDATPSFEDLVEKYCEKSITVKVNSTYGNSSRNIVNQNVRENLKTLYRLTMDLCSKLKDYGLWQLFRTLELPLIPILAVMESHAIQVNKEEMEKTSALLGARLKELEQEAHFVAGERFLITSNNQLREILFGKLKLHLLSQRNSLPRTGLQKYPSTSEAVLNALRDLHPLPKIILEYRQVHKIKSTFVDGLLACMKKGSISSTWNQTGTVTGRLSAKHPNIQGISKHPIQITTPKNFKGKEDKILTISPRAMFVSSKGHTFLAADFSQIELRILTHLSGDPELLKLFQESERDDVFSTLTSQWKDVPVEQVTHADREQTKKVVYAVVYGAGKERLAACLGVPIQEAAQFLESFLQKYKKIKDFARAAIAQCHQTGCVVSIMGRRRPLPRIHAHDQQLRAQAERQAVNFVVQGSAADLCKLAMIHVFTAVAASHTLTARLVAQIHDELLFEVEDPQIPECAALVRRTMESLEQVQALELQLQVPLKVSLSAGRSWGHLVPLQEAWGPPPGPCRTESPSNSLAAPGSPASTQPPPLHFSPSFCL


These molecules were tested against T1, FLAG and HA epitope-tagged human DNA polymerase ν (POLN) (human) (assay: affinity purification with mass spectrometry; FLAG-HA-POLN recovered from HeLa S3 nuclear extract by sequential anti-FLAG (M2 agarose, FLAG peptide elution) and anti-HA immunoprecipitation, washes in 100 mM KCl buffer 0.1B; gel sections analysed by LC-MS/MS; empty-vector purification as control).

binding | Molecule
binds | BRCA2 (endogenous) (from UniProt P51587 1-3418)
no binding | FANCD2 (endogenous) (from UniProt Q9BXW9 1-1451)
no binding | HELQ (endogenous) (protein, UniProt Q8TDG4 1-1101) MDECGSRIRRRVSLPKRNRPSLGCIFGAPTAAELVPGDEGKEEEEMVAENRRRKTAGVLPVEVQPLLLSDSPECLVLGGGDTNPDLLRHMPTDRGVGDQPNDSEVDMFGDYDSFTENSFIAQVDDLEQKYMQLPEHKKHATDFATENLCSESIKNKLSITTIGNLTELQTDKHTENQSGYEGVTIEPGADLLYDVPSSQAIYFENLQNSSNDLGDHSMKERDWKSSSHNTVNEELPHNCIEQPQQNDESSSKVRTSSDMNRRKSIKDHLKNAMTGNAKAQTPIFSRSKQLKDTLLSEEINVAKKTVESSSNDLGPFYSLPSKVRDLYAQFKGIEKLYEWQHTCLTLNSVQERKNLIYSLPTSGGKTLVAEILMLQELLCCRKDVLMILPYVAIVQEKISGLSSFGIELGFFVEEYAGSKGRFPPTKRREKKSLYIATIEKGHSLVNSLIETGRIDSLGLVVVDELHMIGEGSRGATLEMTLAKILYTSKTTQIIGMSATLNNVEDLQKFLQAEYYTSQFRPVELKEYLKINDTIYEVDSKAENGMTFSRLLNYKYSDTLKKMDPDHLVALVTEVIPNYSCLVFCPSKKNCENVAEMICKFLSKEYLKHKEKEKCEVIKNLKNIGNGNLCPVLKRTIPFGVAYHHSGLTSDERKLLEEAYSTGVLCLFTCTSTLAAGVNLPARRVILRAPYVAKEFLKRNQYKQMIGRAGRAGIDTIGESILILQEKDKQQVLELITKPLENCYSHLVQEFTKGIQTLFLSLIGLKIATNLDDIYHFMNGTFFGVQQKVLLKEKSLWEITVESLRYLTEKGLLQKDTIYKSEEEVQYNFHITKLGRASFKGTIDLAYCDILYRDLKKGLEGLVLESLLHLIYLTTPYDLVSQCNPDWMIYFRQFSQLSPAEQNVAAILGVSESFIGKKASGQAIGKKVDKNVVNRLYLSFVLYTLLKETNIWTVSEKFNMPRGYIQNLLTGTASFSSCVLHFCEELEEFWVYRALLVELTKKLTYCVKAELIPLMEVTGVLEGRAKQLYSAGYKSLMHLANANPEVLVRTIDHLSRRQAKQIVSSAKMLLHEKAEALQEEVEELLRLPSDFPGAVASSTDKA
